## Library screen at single concentrations

Data taken from ChEMBL document CHEMBL3988442, “University of Dundee, Small-Polar-MMV Screening Library” (2021).

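Whole-cell growth test on Mycobacterium tuberculosis, read after 4 days in a medium based on cholesterol and the lipid DPPC; the read-out is not stated. Compounds at 500 µM. Higher reads as more growth inhibition (inferred: compounds with an IC50 in retests scored well above the rest). Of about 18,000 compounds tested this way, about 900 (5%) reached 50% or more in at least one test.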

Each number is a percent effect as filed.
How 0% and 100% were set is not recorded. Most values in the screen are low, and negative values occur.
The compounds are a random part of those screened.

SMILES: CCOc1ccc(NC(=O)NC[C@@H]2C[C@H](F)CN2)cc1
percent effect: 4.98%

SMILES: CCNCc1nc(-c2ccccc2)no1
percent effect: 55.22%

SMILES: OCC1(O)CCOCC1
percent effect: -1.707%

SMILES: COCc1noc(C(C)N2CCC(C)(C)C2)n1 (stereo not drawn)
percent effect: -3.761%

SMILES: COCC(=O)N1C[C@@H](CN2CCCCC2)[C@@H](CO)C1
percent effect: -11.19%

SMILES: O=C(Nc1ccc2oc(=O)[nH]c2c1)C1CC1
percent effect: 4.378%

SMILES: CCN(CC)C(=O)c1ccccc1N(C)S(C)(=O)=O
percent effect: -2.693%

SMILES: CCOC(=O)C(C)(O)c1ccc(F)c(F)c1 (stereo not drawn)
percent effect: 5.383%

SMILES: CN(CC(N)=O)C(=O)c1ccc(-c2ccco2)[nH]c1=O
percent effect: -11.98%

SMILES: Cc1nonc1CC(=O)N(C)CCN1CCCCC1=O
percent effect: -14.08%

SMILES: C1CCC(COC2CCNCC2)OC1 (stereo not drawn)
percent effect: 8.114%

SMILES: CN(C)C(=O)c1csc(-c2ccccc2)n1
percent effect: 52.15%

SMILES: CN(CC(=O)NC(C)(C)C)CC1(O)CCCC1
percent effect: 0.5347%

SMILES: N#Cc1ccc(F)cc1CNC1(CCO)CCOCC1
percent effect: -25.59%

SMILES: CSC(C)C(=O)NCc1ccccn1 (stereo not drawn)
percent effect: -18.74%

SMILES: CO[C@@H]1COCC[C@H]1NC(=O)CCC(F)(F)F
percent effect: 41.51%

SMILES: Cc1n[nH]cc1CNc1cc2c(cc1F)NC(=O)CC2
percent effect: -0.8806%

SMILES: CCNC(=O)CN(CC)Cc1ccc(C#N)cc1
percent effect: 22.86%

SMILES: COC1CCN(CCC(=O)Nc2cccnc2)C1 (stereo not drawn)
percent effect: -7.396%

SMILES: CNC1CCCCNC1=O (stereo not drawn)
percent effect: -9.47%

SMILES: COC1CNCC1NC(=O)NC(C)C (stereo not drawn)
percent effect: -7.466%

SMILES: COCCNC(=O)CN(C)CC(=O)N1CCOCC1
percent effect: -3.83%

SMILES: CC(Oc1ccc2c(c1)OCO2)C(=O)NC1CC1 (stereo not drawn)
percent effect: 52.05%

SMILES: c1snnc1CNCC1COC2(CCCCC2)O1 (stereo not drawn)
percent effect: 56.32%

SMILES: NCC(O)c1cccc2ccccc12 (stereo not drawn)
percent effect: 20.03%

SMILES: Cc1ccc(C(C)NC(=O)c2csc(S(N)(=O)=O)c2)o1 (stereo not drawn)
percent effect: 26.48%

SMILES: Cc1ccc(F)cc1NC(=O)C(C)Nc1cnn(C)c1 (stereo not drawn)
percent effect: 5.6%

SMILES: COc1ccc2c(c1)CN(C(=O)C1CCCOC1)CC2 (stereo not drawn)
percent effect: 27.38%

SMILES: CC(C)N1CCC(NC(=O)c2c(Br)cnn2C)CC1
percent effect: 16.49%

SMILES: CC(Cn1cccn1)C(=O)N(C)CCc1cnn(C)c1 (stereo not drawn)
percent effect: -12.99%

SMILES: COCCN(C)CCC(N)c1ccccc1 (stereo not drawn)
percent effect: 8.894%

SMILES: CC1CCCN(CCCNC(=O)Cn2cnnn2)C1 (stereo not drawn)
percent effect: 3.181%

SMILES: CCOC(=O)N1CCN(Cc2nc(C3CC3)no2)CC1
percent effect: 88.9%

SMILES: Cc1noc(C)c1CN1CCCC(CS(C)(=O)=O)C1 (stereo not drawn)
percent effect: 5.425%

SMILES: Cc1ccccc1CNC(=O)N(C)Cc1nnc[nH]1
percent effect: 12.85%

SMILES: CCC(C)N(C)C(=O)c1ccc(C(=O)OC)cc1 (stereo not drawn)
percent effect: 36.54%

SMILES: Cc1cccc(CNC(C)(CO)CO)c1C
percent effect: 20.15%

SMILES: CN1CC(C(=O)N2CCC(c3ncc[nH]3)CC2)NC1=O (stereo not drawn)
percent effect: 9.058%

SMILES: Cc1cc2c(=O)[nH]cnc2cc1F
percent effect: -30.41%

SMILES: Cn1cc(NC(=O)CSc2nccn2C)cn1
percent effect: -3.932%

SMILES: Cc1onc(-c2ccccn2)c1C(=O)NC(C)C
percent effect: -4.435%

SMILES: CC(C)N1CCC(NC(=O)c2ccoc2)CC1
percent effect: 1.025%

SMILES: CCc1noc(Cn2nc(C(F)(F)F)ccc2=O)n1
percent effect: 50.16%

SMILES: OC1CN(Cc2ccccc2)C1
percent effect: 12.2%

SMILES: CC(C(N)=O)S(=O)(=O)c1ncccc1Cl (stereo not drawn)
percent effect: -3.892%

SMILES: CCn1ccc(C(=O)NCc2ccco2)n1
percent effect: 67.85%

SMILES: CCN(CC)S(=O)(=O)c1ccc(CCC(=O)NC)cc1
percent effect: 20.6%

SMILES: Cn1cc(-c2csc(NC3CCOCC3)n2)cn1
percent effect: 22.13%

SMILES: O=C(CNC1CC1)NCCc1ccc(F)cc1
percent effect: 65.21%

The first 4 entries again:

| SMILES | percent effect |
|---|---|
| `CCOc1ccc(NC(=O)NC[C@@H]2C[C@H](F)CN2)cc1` | 4.98% |
| `CCNCc1nc(-c2ccccc2)no1` | 55.22% |
| `OCC1(O)CCOCC1` | -1.707% |
| `COCc1noc(C(C)N2CCC(C)(C)C2)n1` (stereo not drawn) | -3.761% |